Results are given in words; binding and its absence hold for the method and conditions named. Binding seen in cells or lysates may run through a third protein. Some results given as binding are weak or reduced against the parent protein; the word gives no strength.
Tests used:
[1] = target: Keap1 (mouse (endogenous in Balb/c colon)) (UniProt Q9Z2X8); test: co-IP; colonic tissue of mice (DSS colitis model) homogenised in lysis buffer with Triton X-100; immunoprecipitated with anti-Keap1 antibody or IgG and protein A/G-Sepharose; Western blot
[2] = target: Keap1 (mouse (endogenous in Balb/c colon)) (UniProt Q9Z2X8); test: condition: only colon of mice treated with carnosic acid (CA); co-IP; as a1, colonic tissue of DSS-treated mice given carnosic acid (CA, 50 and 100 mg/kg by gavage once daily); immunoprecipitated with anti-Keap1 antibody; Western blot

By UniProt entry, the sequences of proteins in these tests, tags left out.
UniProt Q9Z2X8: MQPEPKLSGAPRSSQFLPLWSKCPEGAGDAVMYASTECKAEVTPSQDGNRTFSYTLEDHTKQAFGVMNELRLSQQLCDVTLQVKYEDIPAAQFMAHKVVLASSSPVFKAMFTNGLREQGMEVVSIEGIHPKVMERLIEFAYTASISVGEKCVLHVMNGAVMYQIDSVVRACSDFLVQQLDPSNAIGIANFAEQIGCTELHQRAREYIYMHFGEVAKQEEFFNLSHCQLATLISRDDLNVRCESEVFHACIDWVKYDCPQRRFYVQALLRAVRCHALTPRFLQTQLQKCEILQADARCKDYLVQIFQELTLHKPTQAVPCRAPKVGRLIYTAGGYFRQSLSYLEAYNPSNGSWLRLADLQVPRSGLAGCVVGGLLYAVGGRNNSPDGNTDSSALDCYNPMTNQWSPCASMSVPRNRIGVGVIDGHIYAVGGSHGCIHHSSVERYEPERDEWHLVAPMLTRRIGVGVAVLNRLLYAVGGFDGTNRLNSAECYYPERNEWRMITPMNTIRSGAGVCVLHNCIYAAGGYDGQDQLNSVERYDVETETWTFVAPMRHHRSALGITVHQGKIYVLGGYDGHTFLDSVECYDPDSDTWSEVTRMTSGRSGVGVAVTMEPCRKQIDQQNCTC
UniProt Q9JLV5: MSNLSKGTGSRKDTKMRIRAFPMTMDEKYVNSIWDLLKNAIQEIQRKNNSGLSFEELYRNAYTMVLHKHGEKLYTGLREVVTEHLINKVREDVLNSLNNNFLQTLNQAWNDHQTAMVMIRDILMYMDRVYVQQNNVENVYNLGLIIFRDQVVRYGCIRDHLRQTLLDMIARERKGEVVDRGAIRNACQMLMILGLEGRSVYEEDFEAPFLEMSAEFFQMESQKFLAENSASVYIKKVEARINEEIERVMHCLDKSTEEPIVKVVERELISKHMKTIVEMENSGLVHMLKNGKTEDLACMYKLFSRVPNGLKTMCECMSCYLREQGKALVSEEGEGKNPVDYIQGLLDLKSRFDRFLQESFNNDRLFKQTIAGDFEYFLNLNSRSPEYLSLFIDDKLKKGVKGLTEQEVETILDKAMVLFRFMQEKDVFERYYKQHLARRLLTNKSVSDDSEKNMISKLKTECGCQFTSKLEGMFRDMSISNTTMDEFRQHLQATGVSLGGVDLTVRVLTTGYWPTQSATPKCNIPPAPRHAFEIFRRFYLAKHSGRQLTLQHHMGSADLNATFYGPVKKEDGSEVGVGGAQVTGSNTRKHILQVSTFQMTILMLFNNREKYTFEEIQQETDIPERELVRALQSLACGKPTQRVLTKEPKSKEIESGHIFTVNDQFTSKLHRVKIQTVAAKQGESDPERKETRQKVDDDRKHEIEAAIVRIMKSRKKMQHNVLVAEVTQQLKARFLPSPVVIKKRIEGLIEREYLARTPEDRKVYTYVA

Cullin3 (from UniProt Q9JLV5 1-768)
binding [1]: binds
binding [2]: no binding

Reference: article PMC5591263
